{"source": "PubChem BioAssay AID504444", "about": "(National Center for Advancing Translational Sciences (NCATS), 2011)", "note": "About 7,500 (2.1%) of roughly 360,000 compounds were called active. The shares of active, inactive and inconclusive entries below differ from those in the screen. Calls come from the whole dose curve; as a rule, active = well fitted inhibition curve with a large enough effect; inconclusive = small, poorly fitted or top-dose-only effect, or effect the other way; inactive = flat fitted curve, though single readings scatter. A potency beside an inconclusive call is a rough fit, not a confirmed value. % is set by controls: 0 for no effect and ±100 for the full control effect; potency is the fitted concentration of half-maximal effect."}
{"test": "Nrf2 qHTS screen for inhibitors; note: nearly all actives have a fitted effect of over 60% in size", "details": "A549 ARE-Fluc reporter, luciferase luminescence, 18-24 h; activity change, negative = inhibition: at 46 µM (top of the series)", "summary_of_the_method": "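Concentration-response testing used A549 ARE_Fluc cells at 5000 cells/well. Following an 18-24 h compound incubation, viability was read by fluorescence (Ex 405/Em 525) and luciferase output by luminescence.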"}
{"molecule": "CC(C)(C)SCCNC(=O)CSc1ccccc1", "Potency": "inconclusive: 7.31 µM [activator, partial curve]"}
{"molecule": "CCn1c(SCC(=O)c2cc(C)n(-c3ccc(C(=O)OC)cc3)c2C)nnc1-c1cccnc1", "Potency": "inconclusive: 29.1 µM [activator, single point]"}
{"molecule": "NC(=O)c1cccc(-c2cc(Nc3ccc(OC(F)(F)F)cc3)ncn2)c1", "Potency": "inconclusive: 23.1 µM [falling, single point]"}
{"molecule": "CCCNC(=O)C1CCC(Cn2c(=O)c3sccc3n(Cc3cccc(OC)c3)c2=O)CC1", "note": "(stereo not given)", "activity change, negative = inhibition": "inactive: -8.62%"}
{"molecule": "CCC(C(=O)N1CCN(c2cccc(C)c2C)CC1)n1nc(C)c2sc3ccccc3c2c1=O", "note": "(stereo not given)", "Potency": "inconclusive: 29.1 µM [falling, single point]"}
{"molecule": "Cc1nc2nc(NC(=O)c3cccc(Cl)c3)[nH]n2c(=O)c1Cc1ccccc1", "activity change, negative = inhibition": "inactive: 5.62%"}
{"molecule": "Cc1noc(C)c1COC(=O)c1cnc(Cl)c(Cl)c1", "Potency": "inconclusive: 29.1 µM [falling, single point]"}
{"molecule": "CCn1nnc2cc(C(=O)Nc3cccc(Cl)c3)ccc21", "Potency": "inconclusive: 7.31 µM [activator, single point]"}
{"molecule": "Cc1cccc(C)c1OCc1cc(C(=O)N2CCC(C3CCCCC3)C2)no1", "note": "(stereo not given)", "Potency": "inconclusive: 11.6 µM [activator, partial curve, poor fit]"}
{"molecule": "Cc1ccc(S(=O)(=O)c2nc(-c3cccs3)oc2N2CCCCC2)cc1", "activity change, negative = inhibition": "inactive: -22%"}
{"molecule": "Cc1cc(OCc2cc(C(=O)N(C)CCCN3CCOCC3)no2)cc(C)c1Cl", "Potency": "inconclusive: 29.1 µM [activator, single point]"}
{"molecule": "COc1ccc2c(c1)c1c(c(=O)n(-c3ccc(OC)c(OC)c3)c(=O)n1Cc1ccccc1C)n2C", "Potency": "inconclusive: 25.9 µM [activator, single point]"}
{"molecule": "CCOc1cc(C)c(C(C)C)cc1S(=O)(=O)NCc1ccccn1", "activity change, negative = inhibition": "inactive: -8.02%"}
{"molecule": "Oc1ccccc1C1Nc2cccc3cccc(c23)N1", "activity change, negative = inhibition": "inactive: 17.5%"}
{"molecule": "Cc1ccc(OCc2nnc(SCC(=O)O)n2-c2ccccc2)cc1", "activity change, negative = inhibition": "inactive: 11.6%"}
{"molecule": "Cc1ccc(-n2ncc(C(=O)NCCN3CCN(C)CC3)c2C2CCN(C(=O)OC(C)(C)C)CC2)c(C)c1", "activity change, negative = inhibition": "inactive: -14.2%"}
{"molecule": "Cc1cc2c(cc1S(=O)(=O)N(C)C1CCCCC1)OCC(=O)N2", "Potency": "inconclusive: 20.6 µM [falling, single point]"}
{"molecule": "CC(=O)c1ccc(C(=O)N2CCC(n3nccc3NC(=O)C3CC3)CC2)cc1", "activity change, negative = inhibition": "inactive: 15.7%"}
{"molecule": "COC(=O)c1ccccc1SCC(=O)Nc1ccc(N2CCOCC2)cc1", "Potency": "inconclusive: 14.6 µM [activator, single point]"}
{"molecule": "Cc1cccc(NC(=O)C(=O)NNC(=O)c2ccc(C(C)(C)C)cc2)c1", "Potency": "inconclusive: 5.8 µM [falling, full curve]"}
